Consider one substance from PMC4751492.

Protein sequences, listed by entry. Tags and fused reporters are not part of them.
UniProt P32120: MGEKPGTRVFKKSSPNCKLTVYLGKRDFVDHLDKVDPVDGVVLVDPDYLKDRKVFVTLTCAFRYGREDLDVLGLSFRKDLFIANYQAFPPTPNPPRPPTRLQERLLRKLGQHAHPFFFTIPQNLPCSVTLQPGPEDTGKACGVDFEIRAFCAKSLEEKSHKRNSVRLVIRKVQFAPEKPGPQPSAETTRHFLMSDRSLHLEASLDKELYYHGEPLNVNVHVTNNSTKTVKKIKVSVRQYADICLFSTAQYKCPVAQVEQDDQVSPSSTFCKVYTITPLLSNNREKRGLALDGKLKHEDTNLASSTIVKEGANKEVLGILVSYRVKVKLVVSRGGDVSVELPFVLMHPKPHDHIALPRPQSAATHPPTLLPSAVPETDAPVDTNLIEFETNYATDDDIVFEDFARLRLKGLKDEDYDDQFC
UniProt O14733: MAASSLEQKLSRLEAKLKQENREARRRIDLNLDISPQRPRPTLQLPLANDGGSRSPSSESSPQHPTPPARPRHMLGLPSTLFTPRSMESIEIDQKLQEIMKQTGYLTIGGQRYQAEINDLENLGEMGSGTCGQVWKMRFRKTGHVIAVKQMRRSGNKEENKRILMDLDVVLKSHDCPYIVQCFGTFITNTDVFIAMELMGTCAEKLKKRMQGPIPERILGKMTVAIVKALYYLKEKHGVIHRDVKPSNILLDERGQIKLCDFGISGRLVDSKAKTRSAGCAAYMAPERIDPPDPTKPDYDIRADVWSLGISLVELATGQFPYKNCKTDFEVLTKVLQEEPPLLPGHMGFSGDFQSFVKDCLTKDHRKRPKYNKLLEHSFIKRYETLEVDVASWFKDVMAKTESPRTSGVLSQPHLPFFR

Results are given in words; binding and its absence hold for the method and conditions named. Some results given as binding are weak or reduced against the parent protein; the word gives no strength.

In experiment [1] the target is MBP-T1A (first 25 residues of arrestin-3 fused to MBP). As to the kind of experiment: pull-down; MBP fusions (10-30 μg) immobilised on amylose resin, 1 h 4 °C; purified kinase (10 μg in 20 mM Tris/150 mM NaCl) added 2 h 4 °C; washed with 50 mM HEPES-Na pH 7.3, 150 mM NaCl; eluted with 50 mM maltose; SDS-PAGE and Western blot; both purified.
For experiment [2], the target named is MBP-arrestin-3 (full-length arrestin-3 fused to MBP) (UniProt P32120). The description is as above.

In the case of “GST-MKK7 (from UniProt O14733 1-419) (enzyme)”, the binding entry in experiment [1] and in experiment [2] was “binds” throughout.
